# Data published in PubChem BioAssay AID504834 (National Center for Advancing Translational Sciences (NCATS), 2011).
# Hit rate of the full screen: of about 320,000 compounds, about 22,000 (6.9%) were called active. The shares of active, inactive and inconclusive entries below differ from those in the screen. Calls come from the whole dose curve; as a rule, active = well fitted inhibition curve with a large enough effect; inconclusive = small, poorly fitted or top-dose-only effect, or another doubt; inactive = no such curve, though single readings can be large or run the other way. Where the call is inconclusive, the potency comes from a doubtful curve fit.
# Experiment: Primary qHTS for delayed death inhibitors of the malarial parasite plastid, 96 hour incubation
# Settings: P. falciparum luciferase reporter growth; series mostly up to 28.7 µM; activity change, negative = inhibition: at the top concentration
# How it was run: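 Readout is luminescence from an integrated firefly luciferase in P. falciparum. Red cells, 2% hematocrit and 0.05% parasitemia final, were cultured with compound through two parasite generations (96 hours) at 37 C, 5% CO2.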
# % is set by controls: 0 for no effect and ±100 for the full control effect; potency is the fitted concentration of half-maximal effect.
Structure (SMILES),Potency,"activity change, negative = inhibition"
CC(C)(C)c1ccc(C(=O)N2CCN(CCNC(=O)C(=O)Nc3ccc(F)cc3)CC2)cc1,"inconclusive: 11.7 µM [inhibitor, single point]",–
CC1CCC(NCC(O)c2ccccc2)CC1 (configuration not stated),active: 6.57 µM,–
COc1ccc(C(=O)Oc2cccc3cccnc23)cc1S(=O)(=O)N1CCOCC1,–,inactive: -16.7%
NC(=O)C1CCN(C(=O)C2CC(=O)N(Cc3ccccc3)C2)CC1 (configuration not stated),–,inactive: 14.8%
NC(=O)c1cnn(Cc2ccc(Cl)cc2)c1N,"inconclusive: 9.28 µM [inhibitor, partial curve]",–
O=C(O)CNS(=O)(=O)c1cccc(Cl)c1,–,inactive: 26.8%
Cc1ccccc1OCC(=O)Nc1cccc(Cl)c1C,–,inactive: -98.4%
CCC(=O)NC(c1cc(Cl)c2ccccc2c1O)C1CC1 (configuration not stated),"inconclusive: 16.5 µM [inhibitor, single point]",–
COc1ccc(NC(=O)C(c2ccccn2)N(C(C)=O)c2ccc(C)cc2)cc1 (configuration not stated),"inconclusive: 16.5 µM [inhibitor, partial curve, poor fit]",–
COc1ccc(C(=O)/C=C/c2ccc(O)cc2)c(O)c1CC=C(C)C,"inconclusive: 18.5 µM [inhibitor, single point]",–
Cc1ccccc1OCc1nnc(SCC(=O)O)n1Cc1ccccc1,"inconclusive: 18.5 µM [inhibitor, single point]",–
COCCOC(=O)c1c(NC(=O)CN2CCc3ccccc32)sc(C(N)=O)c1C,"inconclusive: 0.828 µM [inhibitor, full curve, poor fit]",–
CCN1CCCC1CNC(=O)c1ccc2c(=O)n(CCOC)c(=O)[nH]c2c1 (configuration not stated),"inconclusive: 18.5 µM [inhibitor, single point]",–
O=C1C2ON(c3ccccc3)C(c3ccncc3)C2C(=O)N1c1ccc(Br)cc1 (configuration not stated),–,inactive: 3.97%
Cc1ccc(NC(=O)c2cc(-c3ccc(C)c(C)c3O)n[nH]2)cc1C,"inconclusive: 9.28 µM [inhibitor, partial curve, poor fit]",–
Cc1ccc(CNC(=O)c2ccc(NC(=O)CCS(=O)(=O)c3cccs3)cc2)cc1,"inconclusive: 18.5 µM [inhibitor, single point]",–
Cc1cccc(NC2=NCC(=O)N2CCc2ccccc2)c1,"inconclusive: 13.1 µM [inhibitor, single point]",–
COc1ccc(N2CCN(C(=O)c3ccc(Cn4nc(C)c([N+](=O)[O-])c4C)o3)CC2)cc1,"inconclusive: 9.28 µM [inhibitor, partial curve, poor fit]",–
CCOc1ccc(NC(=O)CN2C(=O)NC(CCSC)C2=O)cc1 (configuration not stated),–,inactive: 7.81%
COc1ccc(-n2c(C)ccc2-c2ccccc2)cn1,"inconclusive: 9.28 µM [inhibitor, single point]",–
CCN(CC)CCn1c2c(c(SCC(=O)Nc3cc(OC)cc(OC)c3)nc1=O)CCC2,"inconclusive: 11.7 µM [inhibitor, single point]",–
CC[n+]1c(/C=C/N(C)c2ccccc2)sc2ccc(Cl)cc21,active: 0.131 µM,–
Cc1cccc(-n2c(N)c(-c3nc4ccccc4n3C)c3nc4ccccc4nc32)c1,active: 7.38 µM,–
COc1ccccc1NC(=O)C(C)OC(=O)CSCC(=O)Nc1cc(C)on1 (configuration not stated),–,inactive: -28.8%

Structure (SMILES),Potency,"activity change, negative = inhibition"
Cc1cc(Cl)ccc1OCCCC(=O)N1CCCc2ccccc21,"inconclusive: 11.7 µM [inhibitor, partial curve, poor fit]",–
O=C(NCC(c1cccs1)N1CCOCC1)c1cn(-c2ccccc2)nc1-c1ccc(Cl)cc1 (configuration not stated),"inconclusive: 11.7 µM [inhibitor, single point]",–
Cc1ccc(N(C(=O)c2ccc(S(=O)(=O)N3CCOCC3)cc2)C2C=CS(=O)(=O)C2)cc1 (configuration not stated),active: 8.28 µM,–
Cc1ccc(S(=O)(=O)Nc2cccc(Cl)c2)cc1NC(=O)c1cccnc1,–,inactive: 10.7%
Cc1cccc(C)c1-n1c(C)cc(/C=N/NC(N)=S)c1C,"inconclusive: 0.0233 µM [inhibitor, full curve, poor fit]",–
COc1ccc(NC(=O)c2ccc(S(=O)(=O)N3CCCC3)cc2)cc1OC,"inconclusive: 18.5 µM [inhibitor, single point]",–
COc1ccc(OC)c(N(CC(=O)N2CCOCC2)S(C)(=O)=O)c1,"inconclusive: 18.5 µM [inhibitor, single point]",–
CCc1cc2c3c([nH]c2cc1S(=O)(=O)N1CCC2(CC1)OCCO2)CCCC3=O,"inconclusive: 4.15 µM [inhibitor, partial curve]",–
COc1cc(NC(=O)c2cc(C)nc3ccccc23)cc(OC)c1OC,–,inactive: -5.28%
O=C(O)CCN1C(=O)c2ccc(NC(=O)CCc3ccccc3)cc2C1=O,active: 11.7 µM,–
O=C(CSc1cc(Cl)ccc1Cl)NCC1CCCO1 (configuration not stated),active: 10.4 µM,–
Cc1ccccc1N(CC(=O)N/N=C/c1cc(Br)c(C)o1)S(C)(=O)=O,"inconclusive: 11.7 µM [inhibitor, single point]",–
O=S(=O)(NCCc1ccccc1)c1ccc(-n2cnnn2)cc1,"inconclusive: 11.7 µM [inhibitor, single point]",–
COC(=O)CSc1nc2ccc(NC(=O)CSc3nnnn3Cc3ccccc3)cc2s1,"inconclusive: 0.165 µM [inhibitor, full curve, poor fit]",–
COc1ccc(-c2csc(N(CCCN3CCOCC3)C(=O)c3ccco3)n2)cc1,–,inactive: -23.9% [at 5.75 µM]
CCCCN1C(=O)C(O)(c2ccccc2)c2cc(Br)ccc21 (configuration not stated),"inconclusive: 10.4 µM [inhibitor, partial curve]",–
CC(Oc1ccc(Br)cc1)C(=O)Nn1c(=S)[nH]c2ncccc2c1=O (configuration not stated),–,inactive: 63.7%
Cc1cc(C(=O)N/N=C/c2c(C)nn(-c3ccccc3)c2C)n[nH]1,"inconclusive: 13.1 µM [inhibitor, partial curve, poor fit]",–
COC(=O)c1sccc1NC(=O)Nc1cc(C)cc(C)c1,active: 4.65 µM,–
CN(C(=O)CS(=O)(=O)c1cn(CC(=O)N2CCCCC2)c2ccccc12)c1ccccc1,"inconclusive: 6.57 µM [inhibitor, partial curve]",–
COCCN(Cc1ccccc1)C(=O)c1cccc(S(=O)(=O)N(C)c2c(C)n(C)n(-c3ccccc3)c2=O)c1,–,inactive: -22%
COc1ccc(CNC(=O)c2ccc(CN3CCOCC3)cc2)cc1,"inconclusive: 13.1 µM [inhibitor, single point]",–
CCOCCn1c(=O)c2c(nc3n2CC(C)CN3Cc2ccccc2)n(C)c1=O (configuration not stated),"inconclusive: 10.4 µM [inhibitor, partial curve, poor fit]",–
COC(=O)CN(c1cc(Cl)ccc1OC)S(=O)(=O)c1ccc(C)cc1,–,inactive: -13.6%

# A draw from above in order of number of heavy atoms, largest number first.
Structure (SMILES),Potency,"activity change, negative = inhibition"
COCCN(Cc1ccccc1)C(=O)c1cccc(S(=O)(=O)N(C)c2c(C)n(C)n(-c3ccccc3)c2=O)c1,–,inactive: -22%
O=C(NCC(c1cccs1)N1CCOCC1)c1cn(-c2ccccc2)nc1-c1ccc(Cl)cc1 (configuration not stated),"inconclusive: 11.7 µM [inhibitor, single point]",–
COC(=O)CSc1nc2ccc(NC(=O)CSc3nnnn3Cc3ccccc3)cc2s1,"inconclusive: 0.165 µM [inhibitor, full curve, poor fit]",–
COc1ccc(-c2csc(N(CCCN3CCOCC3)C(=O)c3ccco3)n2)cc1,–,inactive: -23.9% [at 5.75 µM]
CCOCCn1c(=O)c2c(nc3n2CC(C)CN3Cc2ccccc2)n(C)c1=O (configuration not stated),"inconclusive: 10.4 µM [inhibitor, partial curve, poor fit]",–
O=C(O)CCN1C(=O)c2ccc(NC(=O)CCc3ccccc3)cc2C1=O,active: 11.7 µM,–
COc1cc(NC(=O)c2cc(C)nc3ccccc23)cc(OC)c1OC,–,inactive: -5.28%
CC(Oc1ccc(Br)cc1)C(=O)Nn1c(=S)[nH]c2ncccc2c1=O (configuration not stated),–,inactive: 63.7%
COc1ccc(OC)c(N(CC(=O)N2CCOCC2)S(C)(=O)=O)c1,"inconclusive: 18.5 µM [inhibitor, single point]",–
O=S(=O)(NCCc1ccccc1)c1ccc(-n2cnnn2)cc1,"inconclusive: 11.7 µM [inhibitor, single point]",–
CCCCN1C(=O)C(O)(c2ccccc2)c2cc(Br)ccc21 (configuration not stated),"inconclusive: 10.4 µM [inhibitor, partial curve]",–
COC(=O)c1sccc1NC(=O)Nc1cc(C)cc(C)c1,active: 4.65 µM,–
O=C(CSc1cc(Cl)ccc1Cl)NCC1CCCO1 (configuration not stated),active: 10.4 µM,–

# 3 entries already listed, arranged by number of heavy atoms, ascending.
Structure (SMILES),Potency,"activity change, negative = inhibition"
O=C(O)CNS(=O)(=O)c1cccc(Cl)c1,–,inactive: 26.8%
Cc1cc(Cl)ccc1OCCCC(=O)N1CCCc2ccccc21,"inconclusive: 11.7 µM [inhibitor, partial curve, poor fit]",–
COc1ccc(C(=O)Oc2cccc3cccnc23)cc1S(=O)(=O)N1CCOCC1,–,inactive: -16.7%

# More entries:

Structure (SMILES),Potency,"activity change, negative = inhibition"
CN1/C(=C\C(=O)CSc2cccc[n+]2[O-])C(C)(C)c2ccccc21,active: 3.29 µM,–
CC1(C)CC(=O)C(Sc2ccccc2C(=O)O)=C(O)C1,–,inactive: 19.7%
Cc1ccc2cc(CN(CC3CCCO3)C(=S)NCc3ccco3)c(=O)[nH]c2c1 (configuration not stated),–,inactive: 18.7%
Cc1cc(C(=O)Cn2nc(C(=O)O)c3ccccc3c2=O)c(C)n1CCc1ccc(Cl)cc1,–,inactive: -10.8%
COC(=O)c1sccc1NC(=S)N1CCN(c2ccccc2F)CC1,–,inactive: -7.95%
NS(=O)(=O)c1cccc(NC(=O)CN2CCN(Cc3ccc4c(c3)OCO4)CC2)c1,–,inactive: 1.63%
O=C(Nc1nnc(CCS(=O)(=O)c2ccc3ccccc3c2)s1)c1ccc([N+](=O)[O-])cc1,"inconclusive: 18.5 µM [inhibitor, single point]",–
CCC1CCCCN1C(=O)CSc1nc2c(c(=O)n(C)c(=O)n2C)n1C (configuration not stated),–,inactive: 30.9%
O=C(c1cc(-c2ccccc2)nc2ccccc12)N1CCN(c2ccccc2O)CC1,active: 9.28 µM,–
CCCCCCCCCCCCCCCC[N+](C)(C)Cc1ccccc1,active: 3.01 µM,–
O=C(O)CC(Cc1ccc(Cl)cc1)C(=O)NCC12CC3CC(CC(C3)C1)C2 (configuration not stated),"inconclusive: 13.1 µM [inhibitor, single point]",–
Cc1cc(C)c2nc(N(CCN(C)C)C(=O)c3ccc(S(=O)(=O)N(C)CC4CCCO4)cc3)sc2c1 (configuration not stated),"inconclusive: 9.28 µM [inhibitor, partial curve, poor fit]",–
C=CCn1c(=O)[nH]c2cc(C(=O)N3CCN(c4cccc(Cl)c4)CC3)ccc2c1=O,–,inactive: 32.6%
CCc1cc(C(=O)N2CCN(C(=O)c3ccco3)CC2)sc1C,"inconclusive: 8.28 µM [inhibitor, single point]",–
CC(Sc1ccccc1)C(=O)N(CCC#N)Cc1cccnc1 (configuration not stated),"inconclusive: 18.5 µM [inhibitor, single point]",–
Cc1n[nH]c(C)c1S(=O)(=O)N1CCc2ccccc2C1,active: 10.4 µM,–
CCCC1CC(C)(/C(C)=N\NC(N)=S)OC1=O (configuration not stated),"inconclusive: 11.7 µM [inhibitor, single point]",–
Cc1onc(-c2c(Cl)cccc2Cl)c1NC(=O)N1CCSCC1,–,inactive: 70.7%
O=S(=O)(c1ccccc1)c1cnc(-c2cccnc2)nc1-c1ccc(Cl)c(Cl)c1,"inconclusive: 0.0828 µM [inhibitor, full curve, poor fit]",–
CCOCCOC(=O)c1[nH]c2c(c1C)C(=O)CC(c1ccc(OC)c(OC)c1)C2 (configuration not stated),active: 1.47 µM,–
O=C(c1ccco1)c1nc2c(n1O)CCCCC2,"inconclusive: 10.4 µM [inhibitor, single point]",–
CCCCN(C)S(=O)(=O)c1ccc(C(=O)Nc2nnc(CSC)o2)cc1,active: 13.1 µM,–
Cc1cc([N+](=O)[O-])nn1CC(=O)N(C)C1CCCCC1,–,inactive: 19%
O=C(Nc1ccc2nccnc2c1)Nc1ccccc1Cl,"inconclusive: 3.7 µM [inhibitor, full curve, poor fit]",–
